These are yes or no findings as the source states them, for the method shown. In cells and extracts the contact can be indirect. Binding can be weak; no strength is given. For part of these data: Sequences can lack the tags named with a protein.
Key:
[1] = target: FLAG-tagged HBx (hepatitis B virus); assay: co-IP; lysates of transfected cells 48 h after transfection; FLAG-tagged HBx captured on anti-FLAG magnetic beads; Western blot of co-precipitated proteins
[2] = target: HBx, in vitro translated (hepatitis B virus); assay: co-IP; HBx and VCPIP1 translated in vitro (TnT T7 Quick Coupled system); binding analysed as in the lysate co-IP

Binder	binding [1]	binding [2]
valosin-containing protein-interacting protein 1 (VCPIP1), endogenous (enzyme, UniProt Q96JH7 1-1222) MSQPPPPPPPLPPPPPPPEAPQTPSSLASAAASGGLLKRRDRRILSGSCPDPKCQARLFFPASGSVSIECTECGQRHEQQQLLGVEEVTDPDVVLHNLLRNALLGVTGAPKKNTELVKVMGLSNYHCKLLSPILARYGMDKQTGRAKLLRDMNQGELFDCALLGDRAFLIEPEHVNTVGYGKDRSGSLLYLHDTLEDIKRANKSQECLIPVHVDGDGHCLVHAVSRALVGRELFWHALRENLKQHFQQHLARYQALFHDFIDAAEWEDIINECDPLFVPPEGVPLGLRNIHIFGLANVLHRPIILLDSLSGMRSSGDYSATFLPGLIPAEKCTGKDGHLNKPICIAWSSSGRNHYIPLVGIKGAALPKLPMNLLPKAWGVPQDLIKKYIKLEEDGGCVIGGDRSLQDKYLLRLVAAMEEVFMDKHGIHPSLVADVHQYFYRRTGVIGVQPEEVTAAAKKAVMDNRLHKCLLCGALSELHVPPEWLAPGGKLYNLAKSTHGQLRTDKNYSFPLNNLVCSYDSVKDVLVPDYGMSNLTACNWCHGTSVRKVRGDGSIVYLDGDRTNSRSTGGKCGCGFKHFWDGKEYDNLPEAFPITLEWGGRVVRETVYWFQYESDSSLNSNVYDVAMKLVTKHFPGEFGSEILVQKVVHTILHQTAKKNPDDYTPVNIDGAHAQRVGDVQGQESESQLPTKIILTGQKTKTLHKEELNMSKTERTIQQNITEQASVMQKRKTEKLKQEQKGQPRTVSPSTIRDGPSSAPATPTKAPYSPTTSKEKKIRITTNDGRQSMVTLKSSTTFFELQESIAREFNIPPYLQCIRYGFPPKELMPPQAGMEKEPVPLQHGDRITIEILKSKAEGGQSAAAHSAHTVKQEDIAVTGKLSSKELQEQAEKEMYSLCLLATLMGEDVWSYAKGLPHMFQQGGVFYSIMKKTMGMADGKHCTFPHLPGKTFVYNASEDRLELCVDAAGHFPIGPDVEDLVKEAVSQVRAEATTRSRESSPSHGLLKLGSGGVVKKKSEQLHNVTAFQGKGHSLGTASGNPHLDPRARETSVVRKHNTGTDFSNSSTKTEPSVFTASSSNSELIRIAPGVVTMRDGRQLDPDLVEAQRKKLQEMVSSIQASMDRHLRDQSTEQSPSDLPQRKTEVVSSSAKSGSLQTGLPESFPLTGGTENLNTETTDGCVADALGAAFATRSKAQRGNSVEELEEMDSQDAEMTNTTEPMDHS	binds	–
HA-VCPIP1 (enzyme, UniProt Q96JH7 1-1222) MSQPPPPPPPLPPPPPPPEAPQTPSSLASAAASGGLLKRRDRRILSGSCPDPKCQARLFFPASGSVSIECTECGQRHEQQQLLGVEEVTDPDVVLHNLLRNALLGVTGAPKKNTELVKVMGLSNYHCKLLSPILARYGMDKQTGRAKLLRDMNQGELFDCALLGDRAFLIEPEHVNTVGYGKDRSGSLLYLHDTLEDIKRANKSQECLIPVHVDGDGHCLVHAVSRALVGRELFWHALRENLKQHFQQHLARYQALFHDFIDAAEWEDIINECDPLFVPPEGVPLGLRNIHIFGLANVLHRPIILLDSLSGMRSSGDYSATFLPGLIPAEKCTGKDGHLNKPICIAWSSSGRNHYIPLVGIKGAALPKLPMNLLPKAWGVPQDLIKKYIKLEEDGGCVIGGDRSLQDKYLLRLVAAMEEVFMDKHGIHPSLVADVHQYFYRRTGVIGVQPEEVTAAAKKAVMDNRLHKCLLCGALSELHVPPEWLAPGGKLYNLAKSTHGQLRTDKNYSFPLNNLVCSYDSVKDVLVPDYGMSNLTACNWCHGTSVRKVRGDGSIVYLDGDRTNSRSTGGKCGCGFKHFWDGKEYDNLPEAFPITLEWGGRVVRETVYWFQYESDSSLNSNVYDVAMKLVTKHFPGEFGSEILVQKVVHTILHQTAKKNPDDYTPVNIDGAHAQRVGDVQGQESESQLPTKIILTGQKTKTLHKEELNMSKTERTIQQNITEQASVMQKRKTEKLKQEQKGQPRTVSPSTIRDGPSSAPATPTKAPYSPTTSKEKKIRITTNDGRQSMVTLKSSTTFFELQESIAREFNIPPYLQCIRYGFPPKELMPPQAGMEKEPVPLQHGDRITIEILKSKAEGGQSAAAHSAHTVKQEDIAVTGKLSSKELQEQAEKEMYSLCLLATLMGEDVWSYAKGLPHMFQQGGVFYSIMKKTMGMADGKHCTFPHLPGKTFVYNASEDRLELCVDAAGHFPIGPDVEDLVKEAVSQVRAEATTRSRESSPSHGLLKLGSGGVVKKKSEQLHNVTAFQGKGHSLGTASGNPHLDPRARETSVVRKHNTGTDFSNSSTKTEPSVFTASSSNSELIRIAPGVVTMRDGRQLDPDLVEAQRKKLQEMVSSIQASMDRHLRDQSTEQSPSDLPQRKTEVVSSSAKSGSLQTGLPESFPLTGGTENLNTETTDGCVADALGAAFATRSKAQRGNSVEELEEMDSQDAEMTNTTEPMDHS	binds	–
VCPIP1, in vitro translated (enzyme, UniProt Q96JH7 1-1222) MSQPPPPPPPLPPPPPPPEAPQTPSSLASAAASGGLLKRRDRRILSGSCPDPKCQARLFFPASGSVSIECTECGQRHEQQQLLGVEEVTDPDVVLHNLLRNALLGVTGAPKKNTELVKVMGLSNYHCKLLSPILARYGMDKQTGRAKLLRDMNQGELFDCALLGDRAFLIEPEHVNTVGYGKDRSGSLLYLHDTLEDIKRANKSQECLIPVHVDGDGHCLVHAVSRALVGRELFWHALRENLKQHFQQHLARYQALFHDFIDAAEWEDIINECDPLFVPPEGVPLGLRNIHIFGLANVLHRPIILLDSLSGMRSSGDYSATFLPGLIPAEKCTGKDGHLNKPICIAWSSSGRNHYIPLVGIKGAALPKLPMNLLPKAWGVPQDLIKKYIKLEEDGGCVIGGDRSLQDKYLLRLVAAMEEVFMDKHGIHPSLVADVHQYFYRRTGVIGVQPEEVTAAAKKAVMDNRLHKCLLCGALSELHVPPEWLAPGGKLYNLAKSTHGQLRTDKNYSFPLNNLVCSYDSVKDVLVPDYGMSNLTACNWCHGTSVRKVRGDGSIVYLDGDRTNSRSTGGKCGCGFKHFWDGKEYDNLPEAFPITLEWGGRVVRETVYWFQYESDSSLNSNVYDVAMKLVTKHFPGEFGSEILVQKVVHTILHQTAKKNPDDYTPVNIDGAHAQRVGDVQGQESESQLPTKIILTGQKTKTLHKEELNMSKTERTIQQNITEQASVMQKRKTEKLKQEQKGQPRTVSPSTIRDGPSSAPATPTKAPYSPTTSKEKKIRITTNDGRQSMVTLKSSTTFFELQESIAREFNIPPYLQCIRYGFPPKELMPPQAGMEKEPVPLQHGDRITIEILKSKAEGGQSAAAHSAHTVKQEDIAVTGKLSSKELQEQAEKEMYSLCLLATLMGEDVWSYAKGLPHMFQQGGVFYSIMKKTMGMADGKHCTFPHLPGKTFVYNASEDRLELCVDAAGHFPIGPDVEDLVKEAVSQVRAEATTRSRESSPSHGLLKLGSGGVVKKKSEQLHNVTAFQGKGHSLGTASGNPHLDPRARETSVVRKHNTGTDFSNSSTKTEPSVFTASSSNSELIRIAPGVVTMRDGRQLDPDLVEAQRKKLQEMVSSIQASMDRHLRDQSTEQSPSDLPQRKTEVVSSSAKSGSLQTGLPESFPLTGGTENLNTETTDGCVADALGAAFATRSKAQRGNSVEELEEMDSQDAEMTNTTEPMDHS	–	binds
